Experimental data as given in paper PMC7807703.
No constants are given. Whether binding was seen depends on the method and setting. In cells and extracts the contact can be indirect. Some binding calls cover weakened binding; strength is not graded here. For some assays here: Where a sequence is shown, tags or fusion partners need not be part of it.

Chains of the proteins cited; added tags and fusions are not shown. Residues count along the entry.
UniProt Q9BXM7, residues 78-581: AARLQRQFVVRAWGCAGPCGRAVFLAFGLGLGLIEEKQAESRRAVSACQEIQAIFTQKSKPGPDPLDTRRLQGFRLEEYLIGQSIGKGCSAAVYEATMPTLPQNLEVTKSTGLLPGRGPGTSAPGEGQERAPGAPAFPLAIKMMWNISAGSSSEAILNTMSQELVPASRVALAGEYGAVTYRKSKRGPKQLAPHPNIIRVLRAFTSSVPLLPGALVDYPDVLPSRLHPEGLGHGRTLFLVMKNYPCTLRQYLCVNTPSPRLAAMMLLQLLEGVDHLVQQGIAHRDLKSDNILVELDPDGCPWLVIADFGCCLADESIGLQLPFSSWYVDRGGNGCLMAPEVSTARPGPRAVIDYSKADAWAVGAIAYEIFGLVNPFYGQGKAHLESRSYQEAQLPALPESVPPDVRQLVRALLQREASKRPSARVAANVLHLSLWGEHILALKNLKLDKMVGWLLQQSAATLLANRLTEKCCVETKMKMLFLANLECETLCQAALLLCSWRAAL

How the values were obtained:
[1] = target: T1, Stomatin-like protein 2 (STOML2), endogenous (human (endogenous in HCCLM3)) (UniProt Q9UJZ1); experiment: co-IP; endogenous STOML2 in HCCLM3 cells immunoprecipitated with anti-STOML2 antibody, rabbit IgG as nonspecific control; blot with anti-PINK1 antibody
T1 sequence: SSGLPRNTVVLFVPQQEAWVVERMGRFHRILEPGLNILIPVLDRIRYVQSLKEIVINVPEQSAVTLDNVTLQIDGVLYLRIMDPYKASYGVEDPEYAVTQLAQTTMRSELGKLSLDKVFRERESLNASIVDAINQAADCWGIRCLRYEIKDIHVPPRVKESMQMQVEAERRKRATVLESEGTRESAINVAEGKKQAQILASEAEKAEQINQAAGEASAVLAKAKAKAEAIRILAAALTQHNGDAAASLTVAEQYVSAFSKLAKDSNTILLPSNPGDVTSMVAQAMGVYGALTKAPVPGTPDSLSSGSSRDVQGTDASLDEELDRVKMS

[2] = target: T2, STOML2-Flag (Stomatin-like protein 2 with a Flag tag) (human) (UniProt Q9UJZ1); experiment: co-IP; SMMC-7721 cells transfected with STOML2-Flag or empty vector, CCCP treatment; immunoprecipitation with anti-Flag mAb, blot with anti-PINK1 antibody
T2 sequence: T1 sequence

PTEN-induced putative kinase 1 (PINK1) (from UniProt Q9BXM7 78-581)
binding [1]: binds | binding [2]: binds
